In paper PMC6954241:
These are yes or no findings as the source states them, for the method shown. In cells and extracts the contact can be indirect. Some binding calls cover weakened binding; strength is not graded here.

Protein sequences, listed by entry. Tags and fused reporters are not part of them.
UniProt Q9Z1E3: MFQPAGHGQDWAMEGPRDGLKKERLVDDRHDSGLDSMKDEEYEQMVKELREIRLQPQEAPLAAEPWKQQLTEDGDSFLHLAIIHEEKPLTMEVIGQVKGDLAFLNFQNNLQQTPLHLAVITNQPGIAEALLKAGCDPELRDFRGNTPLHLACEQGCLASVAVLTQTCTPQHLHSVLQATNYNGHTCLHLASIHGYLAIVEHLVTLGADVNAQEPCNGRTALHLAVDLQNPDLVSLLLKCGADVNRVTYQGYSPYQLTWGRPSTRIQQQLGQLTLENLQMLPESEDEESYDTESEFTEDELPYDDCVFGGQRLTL
UniProt Q04207: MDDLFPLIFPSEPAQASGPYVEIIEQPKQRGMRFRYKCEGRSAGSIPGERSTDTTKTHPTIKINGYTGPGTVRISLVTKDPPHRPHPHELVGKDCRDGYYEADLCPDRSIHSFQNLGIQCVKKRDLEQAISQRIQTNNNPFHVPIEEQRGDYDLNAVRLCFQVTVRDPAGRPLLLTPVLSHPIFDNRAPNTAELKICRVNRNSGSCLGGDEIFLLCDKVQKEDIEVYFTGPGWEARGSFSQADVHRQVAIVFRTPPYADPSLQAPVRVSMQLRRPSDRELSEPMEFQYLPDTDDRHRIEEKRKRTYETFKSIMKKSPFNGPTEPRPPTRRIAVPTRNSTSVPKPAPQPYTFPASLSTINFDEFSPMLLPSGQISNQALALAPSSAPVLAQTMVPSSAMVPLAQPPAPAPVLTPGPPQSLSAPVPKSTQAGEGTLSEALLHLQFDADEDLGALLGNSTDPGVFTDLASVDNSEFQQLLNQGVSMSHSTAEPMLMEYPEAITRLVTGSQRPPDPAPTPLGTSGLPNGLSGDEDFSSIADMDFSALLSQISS

Molecular target: IκBα (mouse (endogenous in RAW 264.7)) (UniProt Q9Z1E3)
Assay: co-IP; cytoplasmic extract of RAW 264.7 cells; IκBα antibody on Dynabeads Protein G, overnight at 4 °C, washed three times with PBS; blots for p65 and HDAC3; basal condition and PPL pretreatment followed by LPS

Substance: p65, a subunit of nuclear factor kappa-light-chain-enhancer of activated B cells (NF-κB p65) (from UniProt Q04207 1-549)
- binding: binds
